Experimental findings from PubChem BioAssay AID256 (DTP/NCI, 2004) are described below.

The subject of this experiment is CD2F1 mice, L1210 leukemia ip, survival T/C. Briefly: NCI In Vivo Anticancer Drug Screen. Data for tumor model L1210 Leukemia (intraperitoneal) in CD2F1 (CDF1) mice. Particulars: higher T/C = longer survival. How it is done:
The antitumor activity of compounds was measured in mice bearing transplantable tumors. Survival or tumor size were measured and the results are expressed as the measurement made in the treated group (T) divided by the measurement made in the vehicle treated control group (C). The tumor model used in this assay is L1210 Leukemia (intraperitoneal) in CD2F1 (CDF1) mice

[1] abbreviates: T/C endpoint: mean survival time, dose: 200.0 mg/kg/injection, schedule: Q04DX003 (ip), vehicle: saline.
[2] abbreviates: T/C endpoint: mean survival time, dose: 400.0 mg/kg/injection, schedule: Q04DX003 (ip), vehicle: saline.
The mark [3] stands for this setting: T/C endpoint: mean survival time, dose: 100.0 mg/kg/injection, schedule: Q04DX003 (ip), vehicle: saline with Tween-80.
[4] abbreviates: T/C endpoint: mean survival time, dose: 200.0 mg/kg/injection, schedule: Q04DX003 (ip), vehicle: saline with Tween-80.
Where [5] appears, read: T/C endpoint: mean survival time, dose: 400.0 mg/kg/injection, schedule: Q04DX003 (ip), vehicle: saline with Tween-80.
[6] abbreviates: T/C endpoint: mean survival time, dose: 100.0 mg/kg/injection, schedule: Q01DX009 (ip), vehicle: saline with Tween-80.
Where [7] appears, read: T/C endpoint: mean survival time, dose: 200.0 mg/kg/injection, schedule: Q01DX009 (ip), vehicle: saline with Tween-80.
Setting [8] is: T/C endpoint: mean survival time, dose: 400.0 mg/kg/injection, schedule: Q01DX009 (ip), vehicle: saline with Tween-80.
The mark [9] stands for this setting: T/C endpoint: mean survival time, dose: 100.0 mg/kg/injection, schedule: Q04DX002 (ip), vehicle: saline with Tween-80.
Where [10] appears, read: T/C endpoint: mean survival time, dose: 400.0 mg/kg/injection, schedule: Q01DX001 (ip), vehicle: saline.
Setting [11] is: T/C endpoint: mean survival time, dose: 300.0 mg/kg/injection, schedule: Q01DX001 (ip), vehicle: other.

The list does not hold the whole screen: it gathers tests that were run many times, whatever their T/C, doses with no T/C, and many T/C values between a quarter and a half above the control. Further doses and runs are listed elsewhere. T/C gives the treated animals as a percentage of the vehicle group. Some entries give survivors of the animals treated and no T/C: the source files T/C as zero there, which appears to mark a toxic dose or a test without result, not a measured value. Some doses without a T/C left all or most animals alive at the check, yet need not have been tolerated: the source hardly ever lists a survival T/C far under the control, and the zero likely stands for such cases as well. Survivors were counted at the toxicity check, usually on the fifth day, unless a day is given; later deaths do not show. Schedules are NCI's codes, read here as Q, the interval in days (D) or hours (H), X, the number of doses. Some doses were run more than once; the values are given in rising order. Where survival is the endpoint, this PubChem deposit counts one and a half times the control or more as active, and values a quarter to a half above the control carry no call in these data; other NCI protocols may use other cut-offs.

Take `COc1ccc(N=C=S)cc1N=C=S`: the survivor count was 0 of 6 (T/C endpoint: mean survival time, dose: 100.0 mg/kg/injection, schedule: Q01DX001 (ip), vehicle: Klucel (hydroxypropylcellulose) (HPC)); 0 of 6 (T/C endpoint: mean survival time, dose: 200.0 mg/kg/injection, schedule: Q01DX001 (ip), vehicle: Klucel (hydroxypropylcellulose) (HPC)); 0 of 6 (T/C endpoint: mean survival time, dose: 400.0 mg/kg/injection, schedule: Q01DX001 (ip), vehicle: Klucel (hydroxypropylcellulose) (HPC)).
As for `C=C(C)CNCC(=C)C`, the survivor count reads like this: under setting [1], 0 of 6; under setting [2], 0 of 6.
With `Cc1c(CNc2ccc(C(=O)NC(CC(=O)O)CC(=O)O)cc2)ccc2nc(N)nc(N)c12`, the T/C (T/C endpoint: mean survival time, dose: 0.13 mg/kg/injection, schedule: Q01DX009 (ip), vehicle: saline) is 136 % of control.
With `O=C(O)c1ccc(CBr)c(CBr)c1`, the survivor count under setting [3] is given as 0 of 6, the survivor count under setting [4] is recorded as 0 of 6 and the survivor count under setting [5] is recorded as 0 of 6.
Regarding `CC(O)C(=O)Oc1ccccc1` (stereo not drawn), the survivor count runs as follows: (T/C endpoint: mean survival time, dose: 400.0 mg/kg/injection, schedule: Q01DX009 (ip), vehicle: other) 0 of 6; (T/C endpoint: mean survival time, dose: 800.0 mg/kg/injection, schedule: Q01DX001 (ip), vehicle: other) 0 of 6; (T/C endpoint: mean survival time, dose: 1600.0 mg/kg/injection, schedule: Q01DX001 (ip), vehicle: other) 0 of 6.
On to `CCCCN(CCCC)CC(C)(O)c1cc(-c2ccc(Cl)cc2)nc2c(C)cc(C)cc12` (stereo not drawn), for which, under setting [5], the survivor count is recorded as 6 of 6.
Regarding `CCOC(=O)NNC(=O)OCC`, the survivor count reads like this: under setting [6], 3 of 6; under setting [7], 0 of 6; under setting [8], 0 of 6.
As to `CNC1CCCCC1[N+](C)(C)C` (stereo not drawn), the survivor count under setting [3] is recorded as 0 of 6, the survivor count under setting [4] is 0 of 6 and the survivor count under setting [5] is reported as 0 of 6.
In the case of `N#CCCC(C#N)(c1cccnc1)N1CCOCC1` (stereo not drawn), the survivor count (T/C endpoint: mean survival time, dose: 50.0 mg/kg/injection, schedule: Q01DX009 (ip), vehicle: Klucel (hydroxypropylcellulose) (HPC)) is 0 of 3 and 1 of 3; the survivor count (T/C endpoint: mean survival time, dose: 50.0 mg/kg/injection, schedule: Q04DX002 (ip), vehicle: saline with Tween-80) is 1 of 3; the survivor count (T/C endpoint: mean survival time, dose: 100.0 mg/kg/injection, schedule: Q01DX009 (ip), vehicle: Klucel (hydroxypropylcellulose) (HPC)) is 0 of 3; the survivor count under setting [9] is recorded as 0 of 3; the survivor count (T/C endpoint: mean survival time, dose: 200.0 mg/kg/injection, schedule: Q01DX009 (ip), vehicle: Klucel (hydroxypropylcellulose) (HPC)) is on record as 0 of 3.
With `C[NH-].[Cl][Pt+2][Cl].[NH-]C1CC1`, the T/C runs as follows: (T/C endpoint: mean survival time, dose: 6.25 mg/kg/injection, schedule: Q04DX003 (ip), vehicle: saline with Tween-80) 129 % of control; (T/C endpoint: mean survival time, dose: 12.5 mg/kg/injection, schedule: Q04DX003 (ip), vehicle: saline) 131 % of control. Besides, the survivor count reads like this: (T/C endpoint: mean survival time, dose: 25.0 mg/kg/injection, schedule: Q04DX003 (ip), vehicle: saline with Tween-80) 6 of 6; (T/C endpoint: mean survival time, dose: 50.0 mg/kg/injection, schedule: Q04DX003 (ip), vehicle: saline with Tween-80) 2 of 6; under setting [3], 2 of 6; under setting [4], 2 of 6.
Take `c1ccc(-c2nc(-c3nn[nH]n3)c3ccccc3n2)cc1`: the survivor count under setting [10] was 0 of 3.
Regarding `CCCCCCC[CH2][Sn]([CH2]C)([CH2]C)[O]C(C)=O`, the survivor count (T/C endpoint: mean survival time, dose: 2.5 mg/kg/injection, schedule: Q04DX003 (ip), vehicle: saline) was 6 of 6.
For the compound `OCCN1CCN(CCCN2c3ccccc3Sc3ccc(C(F)(F)F)cc32)CC1`, the T/C (T/C endpoint: mean survival time, dose: 10.0 mg/kg/injection, schedule: Q04DX003 (ip), vehicle: saline) is 125 % of control and the T/C (T/C endpoint: mean survival time, dose: 15.0 mg/kg/injection, schedule: Q04DX003 (ip), vehicle: saline sonified) is 125 % of control. The survivor count runs as follows: (T/C endpoint: mean survival time, dose: 60.0 mg/kg/injection, schedule: Q04DX003 (ip), vehicle: saline) 10 of 10; (T/C endpoint: mean survival time, dose: 100.0 mg/kg/injection, schedule: Q04DX003 (ip), vehicle: saline) 0 of 6; under setting [1], 0 of 6; under setting [2], 0 of 6.
Regarding `Cc1ncoc1C(=O)O`, the survivor count under setting [5] is listed as 2 of 6.
With `O=[N+]([O-])c1ccc(-n2[nH]nnc2=S)cc1`, under “T/C endpoint: mean survival time, dose: 400.0 mg/kg/injection, schedule: Q01DX009 (ip), vehicle: acetone”, the survivor count is recorded as 0 of 6.
`CC(=O)Nc1nc(Cl)nc2c1ncn2Cc1ccccc1`: the survivor count under setting [11] is 0 of 6.
`COC(C(OC)N1CCOCC1)N1CCOCC1` (stereo not drawn): under setting [5], the survivor count is recorded as 6 of 6.
Turning to `N#CCC(N)=S`, the survivor count is 0 of 6 under setting [6], 0 of 6 under setting [7] and 0 of 6 under setting [8].
For `Cc1cc(=O)cc(CC(=O)C(=O)O)o1`, the survivor count is 3 of 6 (T/C endpoint: mean survival time, dose: 200.0 mg/kg/injection, schedule: Q01DX009 (ip), vehicle: saline sonified) and 4 of 6 (T/C endpoint: mean survival time, dose: 400.0 mg/kg/injection, schedule: Q01DX009 (ip), vehicle: saline sonified).
With `CC(C)[S][Pb]([c]1ccccc1)([c]1ccccc1)[c]1ccccc1`, the survivor count reads like this: (T/C endpoint: mean survival time, dose: 10.0 mg/kg/injection, schedule: Q01DX009 (ip), vehicle: gum acacia) 6 of 6; (T/C endpoint: mean survival time, dose: 20.0 mg/kg/injection, schedule: Q01DX009 (ip), vehicle: gum acacia) 0 of 6.
Consider `C[C@]12CC[C@H](OC3OC(CO)C(O)C(O)C3O)C[C@H]1CC[C@@H]1[C@@H]2CC[C@]2(C)[C@@H](C3=CCOC3=O)CC[C@]12O` (stereo partly drawn), for which, for the setting “T/C endpoint: mean survival time, dose: 4.0 mg/kg/injection, schedule: Q01DX009 (ip), vehicle: saline”, the survivor count is 6 of 6.
Consider `ClI(Cl)c1ccccc1`, for which the survivor count under setting [7] is reported as 2 of 6 and the survivor count under setting [8] was 0 of 6.
Turning to `CCOc1ccc(-n2c(O)c(N=Nc3ccccc3)c(=O)n(-c3ccccc3)c2=S)cc1`, the survivor count (T/C endpoint: mean survival time, dose: 400.0 mg/kg/injection, schedule: Q01DX001 (ip), vehicle: saline with Tween-80) is reported as 0 of 6.
With `CCC(=O)OCC1OC(n2ccc(O)cc2=O)C(O)C1O` (stereo not drawn), the T/C (T/C endpoint: median survival time, dose: 225.0 mg/kg/injection, schedule: Q01DX009 (ip), vehicle: saline + alcohol) is 142 % of control.
As to `NC(=O)N/N=C/c1cccs1`, the survivor count under setting [6] is listed as 3 of 3 and the survivor count under setting [3] was 3 of 3.
`CC(=O)Nc1ccncn1`: under setting [9], the survivor count is on record as 1 of 3.
For `CC(=O)C(C[CH2][Hg][Cl])C(C)=O`, the survivor count runs as follows: (T/C endpoint: mean survival time, dose: 150.0 mg/kg/injection, schedule: Q01DX001 (ip), vehicle: other) 1 of 6; under setting [11], 0 of 6.
Take `CN1CC(=O)NC1=S`: the survivor count runs as follows: (T/C endpoint: mean survival time, dose: 200.0 mg/kg/injection, schedule: Q01DX001 (ip), vehicle: saline) 1 of 3; under setting [10], 0 of 3.
For `C/C=C\c1ccc(OCCOC(=O)Nc2ccc(C)c([N+](=O)[O-])c2)c(OC)c1`, the survivor count under setting [6] was 3 of 3.
Regarding `CC(=O)NNC(=O)CC(O)(c1ccccc1)c1ccccc1`, the survivor count (T/C endpoint: mean survival time, dose: 400.0 mg/kg/injection, schedule: Q04DX002 (ip), vehicle: saline with Tween-80) is 3 of 3.
